Results are given in words; binding and its absence hold for the method and conditions named. Binding calls can cover weak binding; strength is not graded here. Where a sequence is shown, tags or fusion partners need not be part of it.
Target: T1, Gpsm2-FLAG (MBP tag removed) (UniProt P81274)
T1 sequence: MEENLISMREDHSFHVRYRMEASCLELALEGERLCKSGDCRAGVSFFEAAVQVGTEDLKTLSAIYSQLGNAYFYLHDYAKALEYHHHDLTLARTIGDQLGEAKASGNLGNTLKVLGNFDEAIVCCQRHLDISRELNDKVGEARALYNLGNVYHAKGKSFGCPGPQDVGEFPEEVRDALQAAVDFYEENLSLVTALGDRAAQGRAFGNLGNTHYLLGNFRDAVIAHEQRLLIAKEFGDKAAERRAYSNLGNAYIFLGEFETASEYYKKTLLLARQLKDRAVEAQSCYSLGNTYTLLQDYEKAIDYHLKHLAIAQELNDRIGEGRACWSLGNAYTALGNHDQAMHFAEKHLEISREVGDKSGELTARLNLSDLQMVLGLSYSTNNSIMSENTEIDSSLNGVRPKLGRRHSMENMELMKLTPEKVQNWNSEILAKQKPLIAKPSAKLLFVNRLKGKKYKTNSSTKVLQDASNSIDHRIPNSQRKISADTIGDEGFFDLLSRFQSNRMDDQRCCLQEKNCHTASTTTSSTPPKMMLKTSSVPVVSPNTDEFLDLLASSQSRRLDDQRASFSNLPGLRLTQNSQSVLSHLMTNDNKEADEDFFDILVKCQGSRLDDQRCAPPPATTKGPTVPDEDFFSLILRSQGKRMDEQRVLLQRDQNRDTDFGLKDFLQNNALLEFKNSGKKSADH
Test: pull-down; Avi-tagged Gαt* bound to streptactin-agarose beads, incubated with 10 μM Gpsm2-FLAG and/or 20 μM His-HA-thioredoxin-Frmpd1 peptide; 20 mM Tris, 150 mM KCl, 5% glycerol, 1 mM TCEP, 0.5 mg/ml BSA, pH 7.5; blots anti-HA and anti-FLAG; both purified

For “His-HA-thioredoxin-Frmpd1 peptide (residues 895–938) (domain or fragment)”, the binding was “binds”.

— publication PMC9581579 (2022)
